Results are given in words; binding and its absence hold for the method and conditions named. In cells and extracts the contact can be indirect. Some binding calls cover weakened binding; strength is not graded here.

The chains behind the UniProt entries cited, without tags or fusion partners.
UniProt Q96FV2: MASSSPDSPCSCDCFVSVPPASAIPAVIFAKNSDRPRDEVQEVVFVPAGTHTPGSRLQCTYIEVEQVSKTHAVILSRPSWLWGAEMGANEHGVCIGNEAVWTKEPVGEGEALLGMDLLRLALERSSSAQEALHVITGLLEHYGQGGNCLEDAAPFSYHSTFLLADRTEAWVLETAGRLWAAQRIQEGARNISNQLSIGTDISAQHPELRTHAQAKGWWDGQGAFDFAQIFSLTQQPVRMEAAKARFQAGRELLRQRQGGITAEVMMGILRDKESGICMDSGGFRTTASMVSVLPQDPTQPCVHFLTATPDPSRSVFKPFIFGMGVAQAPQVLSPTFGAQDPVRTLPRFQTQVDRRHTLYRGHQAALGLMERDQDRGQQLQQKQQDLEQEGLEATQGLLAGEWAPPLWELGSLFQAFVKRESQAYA
UniProt Q8NEZ4: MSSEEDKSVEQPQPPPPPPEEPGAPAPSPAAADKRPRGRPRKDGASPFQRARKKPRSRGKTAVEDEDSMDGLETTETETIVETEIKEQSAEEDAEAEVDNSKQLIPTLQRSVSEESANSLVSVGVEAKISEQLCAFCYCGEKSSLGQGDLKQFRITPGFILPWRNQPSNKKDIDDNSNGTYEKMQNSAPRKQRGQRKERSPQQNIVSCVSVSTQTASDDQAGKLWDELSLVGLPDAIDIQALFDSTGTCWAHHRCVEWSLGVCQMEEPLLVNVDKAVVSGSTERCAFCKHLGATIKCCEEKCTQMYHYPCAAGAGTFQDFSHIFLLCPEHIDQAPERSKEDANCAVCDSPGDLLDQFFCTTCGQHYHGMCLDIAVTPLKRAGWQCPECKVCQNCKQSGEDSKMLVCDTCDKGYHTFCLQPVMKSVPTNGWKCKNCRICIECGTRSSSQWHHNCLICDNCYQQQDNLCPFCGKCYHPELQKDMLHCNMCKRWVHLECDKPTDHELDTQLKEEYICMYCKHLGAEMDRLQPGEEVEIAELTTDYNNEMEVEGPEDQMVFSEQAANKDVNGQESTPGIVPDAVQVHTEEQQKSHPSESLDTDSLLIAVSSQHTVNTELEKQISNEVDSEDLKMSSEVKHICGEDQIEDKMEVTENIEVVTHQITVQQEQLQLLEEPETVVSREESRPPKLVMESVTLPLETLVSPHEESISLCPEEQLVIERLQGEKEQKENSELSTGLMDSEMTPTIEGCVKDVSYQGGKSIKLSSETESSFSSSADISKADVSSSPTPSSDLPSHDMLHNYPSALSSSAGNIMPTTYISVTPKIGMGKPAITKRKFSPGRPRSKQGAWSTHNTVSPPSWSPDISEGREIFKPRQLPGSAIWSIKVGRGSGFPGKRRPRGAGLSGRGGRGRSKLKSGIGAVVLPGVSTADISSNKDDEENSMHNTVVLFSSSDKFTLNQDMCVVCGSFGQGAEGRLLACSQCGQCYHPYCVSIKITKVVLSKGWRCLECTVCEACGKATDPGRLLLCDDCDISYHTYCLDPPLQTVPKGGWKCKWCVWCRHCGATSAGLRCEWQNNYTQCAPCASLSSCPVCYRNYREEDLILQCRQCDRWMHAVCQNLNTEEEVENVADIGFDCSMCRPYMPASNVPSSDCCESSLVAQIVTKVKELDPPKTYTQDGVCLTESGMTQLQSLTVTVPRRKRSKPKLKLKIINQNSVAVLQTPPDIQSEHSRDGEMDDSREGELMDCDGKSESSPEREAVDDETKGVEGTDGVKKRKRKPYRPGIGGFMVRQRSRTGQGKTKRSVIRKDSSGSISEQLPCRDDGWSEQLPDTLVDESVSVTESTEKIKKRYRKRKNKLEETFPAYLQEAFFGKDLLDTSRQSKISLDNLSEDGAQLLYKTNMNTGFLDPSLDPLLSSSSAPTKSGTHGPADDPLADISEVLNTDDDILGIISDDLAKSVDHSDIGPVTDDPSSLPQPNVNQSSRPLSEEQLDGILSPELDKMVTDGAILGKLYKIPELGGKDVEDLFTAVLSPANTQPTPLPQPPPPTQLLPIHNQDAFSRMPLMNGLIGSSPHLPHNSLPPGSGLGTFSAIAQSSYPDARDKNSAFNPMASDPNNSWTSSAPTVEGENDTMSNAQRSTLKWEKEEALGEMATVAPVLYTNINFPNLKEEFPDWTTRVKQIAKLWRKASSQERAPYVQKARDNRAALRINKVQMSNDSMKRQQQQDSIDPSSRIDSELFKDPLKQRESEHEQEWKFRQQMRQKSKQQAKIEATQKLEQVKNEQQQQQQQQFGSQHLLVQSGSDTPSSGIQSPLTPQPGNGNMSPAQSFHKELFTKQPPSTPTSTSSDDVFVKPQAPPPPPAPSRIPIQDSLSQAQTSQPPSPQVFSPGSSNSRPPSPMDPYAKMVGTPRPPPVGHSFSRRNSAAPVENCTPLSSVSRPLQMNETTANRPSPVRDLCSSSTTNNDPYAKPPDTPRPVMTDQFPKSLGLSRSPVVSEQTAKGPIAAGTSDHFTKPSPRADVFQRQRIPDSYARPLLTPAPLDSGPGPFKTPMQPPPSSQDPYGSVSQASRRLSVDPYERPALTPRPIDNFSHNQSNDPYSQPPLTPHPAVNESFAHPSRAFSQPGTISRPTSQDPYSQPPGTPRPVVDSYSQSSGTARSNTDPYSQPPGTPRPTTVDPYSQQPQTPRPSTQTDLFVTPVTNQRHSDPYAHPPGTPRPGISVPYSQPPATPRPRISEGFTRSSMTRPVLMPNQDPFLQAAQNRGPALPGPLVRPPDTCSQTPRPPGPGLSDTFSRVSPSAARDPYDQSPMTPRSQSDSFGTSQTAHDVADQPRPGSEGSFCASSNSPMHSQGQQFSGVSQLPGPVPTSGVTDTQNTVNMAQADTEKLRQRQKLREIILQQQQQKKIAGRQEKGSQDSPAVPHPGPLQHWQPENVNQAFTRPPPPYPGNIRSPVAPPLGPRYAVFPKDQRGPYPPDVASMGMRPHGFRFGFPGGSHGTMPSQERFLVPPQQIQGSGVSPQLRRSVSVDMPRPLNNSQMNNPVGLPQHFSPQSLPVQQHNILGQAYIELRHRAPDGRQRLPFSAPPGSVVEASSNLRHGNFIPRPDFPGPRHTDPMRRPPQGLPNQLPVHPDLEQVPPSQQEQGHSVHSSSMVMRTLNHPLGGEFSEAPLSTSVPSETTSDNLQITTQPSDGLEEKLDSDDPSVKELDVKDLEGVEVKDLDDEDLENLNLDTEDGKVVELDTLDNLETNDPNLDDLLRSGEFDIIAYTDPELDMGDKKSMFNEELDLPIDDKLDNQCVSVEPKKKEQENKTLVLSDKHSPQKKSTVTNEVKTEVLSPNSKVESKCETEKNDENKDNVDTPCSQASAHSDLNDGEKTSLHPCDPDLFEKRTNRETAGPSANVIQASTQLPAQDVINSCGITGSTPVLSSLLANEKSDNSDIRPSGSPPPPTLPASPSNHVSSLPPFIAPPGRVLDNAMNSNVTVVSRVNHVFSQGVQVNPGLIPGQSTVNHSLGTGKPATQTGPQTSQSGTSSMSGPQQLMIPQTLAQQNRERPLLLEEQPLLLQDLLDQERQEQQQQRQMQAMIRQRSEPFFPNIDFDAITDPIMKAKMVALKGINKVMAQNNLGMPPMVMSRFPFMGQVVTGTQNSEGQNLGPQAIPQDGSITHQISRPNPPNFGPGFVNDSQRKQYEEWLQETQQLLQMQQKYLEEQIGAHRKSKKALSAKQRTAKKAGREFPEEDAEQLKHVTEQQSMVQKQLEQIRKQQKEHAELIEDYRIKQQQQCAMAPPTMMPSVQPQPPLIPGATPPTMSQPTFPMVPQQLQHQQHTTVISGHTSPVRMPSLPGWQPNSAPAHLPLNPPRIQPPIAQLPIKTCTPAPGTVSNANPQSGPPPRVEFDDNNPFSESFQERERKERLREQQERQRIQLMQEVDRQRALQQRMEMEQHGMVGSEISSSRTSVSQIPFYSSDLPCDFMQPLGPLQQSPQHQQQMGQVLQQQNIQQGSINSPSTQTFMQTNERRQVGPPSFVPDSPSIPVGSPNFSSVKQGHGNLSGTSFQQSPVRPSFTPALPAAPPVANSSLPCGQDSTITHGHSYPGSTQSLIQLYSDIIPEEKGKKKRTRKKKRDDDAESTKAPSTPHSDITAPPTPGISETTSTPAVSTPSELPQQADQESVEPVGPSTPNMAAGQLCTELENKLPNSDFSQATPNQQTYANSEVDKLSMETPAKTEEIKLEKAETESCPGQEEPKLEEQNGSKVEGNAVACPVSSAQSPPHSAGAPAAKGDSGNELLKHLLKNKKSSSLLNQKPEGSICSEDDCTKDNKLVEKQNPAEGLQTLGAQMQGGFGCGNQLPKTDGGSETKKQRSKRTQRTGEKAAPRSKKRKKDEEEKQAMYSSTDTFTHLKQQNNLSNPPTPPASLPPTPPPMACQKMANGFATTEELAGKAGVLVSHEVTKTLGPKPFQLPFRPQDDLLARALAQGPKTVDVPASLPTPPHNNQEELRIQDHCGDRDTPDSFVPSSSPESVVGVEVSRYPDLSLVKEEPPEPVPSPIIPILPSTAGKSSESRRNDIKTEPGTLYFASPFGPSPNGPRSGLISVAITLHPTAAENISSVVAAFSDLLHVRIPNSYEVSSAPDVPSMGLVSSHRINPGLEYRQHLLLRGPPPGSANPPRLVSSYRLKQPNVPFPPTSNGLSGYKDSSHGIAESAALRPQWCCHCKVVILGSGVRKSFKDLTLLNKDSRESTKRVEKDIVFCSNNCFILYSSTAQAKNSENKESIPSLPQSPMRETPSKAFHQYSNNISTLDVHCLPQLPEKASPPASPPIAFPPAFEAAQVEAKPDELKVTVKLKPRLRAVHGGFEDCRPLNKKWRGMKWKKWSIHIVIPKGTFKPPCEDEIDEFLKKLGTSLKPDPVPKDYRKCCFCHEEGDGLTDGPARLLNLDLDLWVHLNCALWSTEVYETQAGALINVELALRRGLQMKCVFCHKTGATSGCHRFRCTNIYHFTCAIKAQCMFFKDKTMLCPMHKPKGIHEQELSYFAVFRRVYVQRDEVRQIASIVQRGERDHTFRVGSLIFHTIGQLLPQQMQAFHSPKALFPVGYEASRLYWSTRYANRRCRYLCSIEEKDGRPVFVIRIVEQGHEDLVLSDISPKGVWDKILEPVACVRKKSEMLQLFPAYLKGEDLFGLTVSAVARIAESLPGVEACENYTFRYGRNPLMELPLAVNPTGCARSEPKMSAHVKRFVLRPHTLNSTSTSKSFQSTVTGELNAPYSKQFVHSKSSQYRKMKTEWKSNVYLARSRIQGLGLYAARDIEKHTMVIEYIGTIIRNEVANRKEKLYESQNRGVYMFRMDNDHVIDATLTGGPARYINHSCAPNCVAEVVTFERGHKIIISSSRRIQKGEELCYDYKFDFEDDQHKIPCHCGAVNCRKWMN
UniProt P11142: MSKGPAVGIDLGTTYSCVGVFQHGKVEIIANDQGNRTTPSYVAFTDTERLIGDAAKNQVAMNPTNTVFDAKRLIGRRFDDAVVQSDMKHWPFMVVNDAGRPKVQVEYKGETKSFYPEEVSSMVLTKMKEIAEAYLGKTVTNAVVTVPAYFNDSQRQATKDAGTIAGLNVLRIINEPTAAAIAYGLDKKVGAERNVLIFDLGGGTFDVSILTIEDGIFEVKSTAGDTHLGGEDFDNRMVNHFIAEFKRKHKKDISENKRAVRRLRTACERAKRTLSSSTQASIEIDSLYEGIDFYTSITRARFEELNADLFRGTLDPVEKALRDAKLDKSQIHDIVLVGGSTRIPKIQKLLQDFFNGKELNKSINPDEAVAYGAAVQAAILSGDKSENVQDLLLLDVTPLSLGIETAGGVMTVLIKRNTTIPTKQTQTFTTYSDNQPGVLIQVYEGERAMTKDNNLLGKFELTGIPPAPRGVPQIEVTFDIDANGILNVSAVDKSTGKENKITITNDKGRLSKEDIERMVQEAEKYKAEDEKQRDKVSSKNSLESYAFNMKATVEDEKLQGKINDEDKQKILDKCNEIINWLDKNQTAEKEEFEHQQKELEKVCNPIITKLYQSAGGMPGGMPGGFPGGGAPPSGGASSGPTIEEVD
UniProt Q9UNE7: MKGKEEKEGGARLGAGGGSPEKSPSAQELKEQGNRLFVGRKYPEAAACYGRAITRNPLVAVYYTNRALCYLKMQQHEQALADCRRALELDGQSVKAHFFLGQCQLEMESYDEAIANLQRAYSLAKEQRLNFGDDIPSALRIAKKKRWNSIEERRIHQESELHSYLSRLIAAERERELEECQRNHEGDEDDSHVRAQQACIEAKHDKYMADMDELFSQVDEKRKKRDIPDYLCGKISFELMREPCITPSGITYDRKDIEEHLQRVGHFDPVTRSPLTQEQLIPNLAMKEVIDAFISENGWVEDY
UniProt O95816: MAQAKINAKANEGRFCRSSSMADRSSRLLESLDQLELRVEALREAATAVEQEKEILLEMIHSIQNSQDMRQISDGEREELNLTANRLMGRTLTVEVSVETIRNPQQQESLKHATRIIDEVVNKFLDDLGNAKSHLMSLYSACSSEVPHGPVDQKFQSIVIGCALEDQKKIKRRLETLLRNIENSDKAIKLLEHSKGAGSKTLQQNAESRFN

What all share (experiment): co-IP; HEK293T and TNBC cells transfected with the indicated expression vectors or expressing HA-SCRN2; NP40 lysis buffer; extracts immunoprecipitated with the indicated antibodies at 4 °C overnight, washed thrice, immunoblotting; Figure 2L with or without serum starvation for 24 h; Figure 4M with SCRN2 co-expressed
(In western blotting, separated proteins are transferred to a membrane and probed.)

In test [1] the target is HA-SCRN2 (secernin-2) (human) (UniProt Q96FV2).
Test [2] addresses Histone-lysine N-methyltransferase 2C (KMT2C) (human) (UniProt Q8NEZ4).
Test [3] addresses HSPA8 (heat shock protein family A member 8) (human (endogenous in HEK293T)) (UniProt P11142).

As to “HSPA8 (heat shock protein family A member 8) (from UniProt P11142 1-646)”, the binding entry in test [1] is given as “binds”.
As for “E3 ubiquitin-protein ligase CHIP (from UniProt Q9UNE7 1-303) (enzyme)”, the binding entry in test [2] is recorded as “binds”.
As for “HA-SCRN2 (secernin-2) (from UniProt Q96FV2 1-425)”, in test [3], the binding entry was “binds”.
As for “BAG family molecular chaperone regulator 2 (BAG2) (from UniProt O95816 1-211)”, the binding entry in test [1] is on record as “binds”.

Source of the values: article PMC11905051.
